Experimental findings from publication PMC13571239 are described below.

Amino acid sequences for entries named in this document (tags omitted). Residues count along the entry.
UniProt P25705, residues 44-553: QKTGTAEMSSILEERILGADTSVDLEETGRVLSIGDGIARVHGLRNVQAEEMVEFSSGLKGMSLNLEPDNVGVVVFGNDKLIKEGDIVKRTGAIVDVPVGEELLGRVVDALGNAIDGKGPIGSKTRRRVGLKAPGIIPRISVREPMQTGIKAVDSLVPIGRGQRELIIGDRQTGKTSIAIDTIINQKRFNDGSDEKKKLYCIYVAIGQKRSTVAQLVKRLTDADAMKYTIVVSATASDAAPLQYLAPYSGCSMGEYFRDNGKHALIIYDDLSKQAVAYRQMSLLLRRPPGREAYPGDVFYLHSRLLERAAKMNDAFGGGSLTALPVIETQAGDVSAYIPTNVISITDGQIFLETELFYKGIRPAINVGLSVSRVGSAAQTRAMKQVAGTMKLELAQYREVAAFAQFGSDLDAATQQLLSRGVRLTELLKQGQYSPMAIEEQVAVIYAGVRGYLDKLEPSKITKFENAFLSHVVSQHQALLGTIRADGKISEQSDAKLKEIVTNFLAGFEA

Results are given in words; binding and its absence hold for the method and conditions named. Binding seen in cells or lysates may run through a third protein. Here binding means that the protein was enriched with, or labelled near, the bait; the list need not be complete.

The target in the assay is T1, DNA damage-inducible transcript 4-like (DDIT4L) (UniProt Q96D03).
T1 sequence: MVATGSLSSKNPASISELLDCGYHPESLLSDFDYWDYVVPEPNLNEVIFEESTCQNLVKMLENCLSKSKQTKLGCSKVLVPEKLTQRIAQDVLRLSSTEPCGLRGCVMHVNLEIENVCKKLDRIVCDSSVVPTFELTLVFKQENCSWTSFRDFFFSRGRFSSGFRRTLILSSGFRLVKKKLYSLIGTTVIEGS
Nature of the assay: affinity purification with mass spectrometry; HEK293 cells transfected with DDIT4L; lysate immunoprecipitated with anti-DDIT4L antibody; bands of ~40 and ~50 kDa identified by mass spectrometry.

Turning to ATP5A (from UniProt P25705 44-553), the binding entry is “binds”.

B1: TOM40 (protein, UniProt O96008 1-361)
chain: MGNVLAASSPPAGPPPPPAPALVGLPPPPPSPPGFTLPPLGGSLGAGTSTSRSSERTPGAATASASGAAEDGACGCLPNPGTFEECHRKCKELFPIQMEGVKLTVNKGLSNHFQVNHTVALSTIGESNYHFGVTYVGTKQLSPTEAFPVLVGDMDNSGSLNAQVIHQLGPGLRSKMAIQTQQSKFVNWQVDGEYRGSDFTAAVTLGNPDVLVGSGILVAHYLQSITPCLALGGELVYHRRPGEEGTVMSLAGKYTLNNWLATVTLGQAGMHATYYHKASDQLQVGVEFEASTRMQDTSVSFGYQLDLPKANLLFKGSVDSNWIVGATLEKKLPPLPLTLALGAFLNHRKNKFQCGFGLTIG
With B1, the binding result was “binds”.
